# No constants are given. Whether binding was seen depends on the method and setting. In cells and extracts the contact can be indirect. Here binding means that the protein was enriched with, or labelled near, the bait; the list need not be complete. For some of these results: A no says only that the protein was not detected with the bait.
# Protein sequences, listed by entry. Tags and fused reporters are not part of them.
# UniProt Q14240: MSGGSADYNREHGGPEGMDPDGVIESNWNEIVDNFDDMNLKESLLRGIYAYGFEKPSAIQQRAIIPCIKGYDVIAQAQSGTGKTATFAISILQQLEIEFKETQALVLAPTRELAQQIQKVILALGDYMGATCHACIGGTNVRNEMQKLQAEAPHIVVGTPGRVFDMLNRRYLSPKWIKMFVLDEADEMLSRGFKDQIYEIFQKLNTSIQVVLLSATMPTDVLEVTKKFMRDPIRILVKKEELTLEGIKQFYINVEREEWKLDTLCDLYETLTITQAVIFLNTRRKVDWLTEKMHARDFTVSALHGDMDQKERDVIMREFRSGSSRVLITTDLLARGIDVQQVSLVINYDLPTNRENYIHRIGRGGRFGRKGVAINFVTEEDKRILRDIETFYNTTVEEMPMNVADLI
# UniProt P60842: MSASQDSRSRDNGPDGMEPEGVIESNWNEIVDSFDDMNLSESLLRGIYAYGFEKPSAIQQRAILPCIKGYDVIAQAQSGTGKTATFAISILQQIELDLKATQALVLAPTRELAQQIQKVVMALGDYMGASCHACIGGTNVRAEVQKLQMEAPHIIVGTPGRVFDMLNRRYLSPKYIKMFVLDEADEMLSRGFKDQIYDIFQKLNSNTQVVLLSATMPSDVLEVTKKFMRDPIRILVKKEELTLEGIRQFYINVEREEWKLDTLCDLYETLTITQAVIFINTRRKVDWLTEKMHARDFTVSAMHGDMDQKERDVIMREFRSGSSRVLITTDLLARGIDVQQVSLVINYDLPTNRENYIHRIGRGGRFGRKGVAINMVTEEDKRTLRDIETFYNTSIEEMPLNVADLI
# UniProt Q04637: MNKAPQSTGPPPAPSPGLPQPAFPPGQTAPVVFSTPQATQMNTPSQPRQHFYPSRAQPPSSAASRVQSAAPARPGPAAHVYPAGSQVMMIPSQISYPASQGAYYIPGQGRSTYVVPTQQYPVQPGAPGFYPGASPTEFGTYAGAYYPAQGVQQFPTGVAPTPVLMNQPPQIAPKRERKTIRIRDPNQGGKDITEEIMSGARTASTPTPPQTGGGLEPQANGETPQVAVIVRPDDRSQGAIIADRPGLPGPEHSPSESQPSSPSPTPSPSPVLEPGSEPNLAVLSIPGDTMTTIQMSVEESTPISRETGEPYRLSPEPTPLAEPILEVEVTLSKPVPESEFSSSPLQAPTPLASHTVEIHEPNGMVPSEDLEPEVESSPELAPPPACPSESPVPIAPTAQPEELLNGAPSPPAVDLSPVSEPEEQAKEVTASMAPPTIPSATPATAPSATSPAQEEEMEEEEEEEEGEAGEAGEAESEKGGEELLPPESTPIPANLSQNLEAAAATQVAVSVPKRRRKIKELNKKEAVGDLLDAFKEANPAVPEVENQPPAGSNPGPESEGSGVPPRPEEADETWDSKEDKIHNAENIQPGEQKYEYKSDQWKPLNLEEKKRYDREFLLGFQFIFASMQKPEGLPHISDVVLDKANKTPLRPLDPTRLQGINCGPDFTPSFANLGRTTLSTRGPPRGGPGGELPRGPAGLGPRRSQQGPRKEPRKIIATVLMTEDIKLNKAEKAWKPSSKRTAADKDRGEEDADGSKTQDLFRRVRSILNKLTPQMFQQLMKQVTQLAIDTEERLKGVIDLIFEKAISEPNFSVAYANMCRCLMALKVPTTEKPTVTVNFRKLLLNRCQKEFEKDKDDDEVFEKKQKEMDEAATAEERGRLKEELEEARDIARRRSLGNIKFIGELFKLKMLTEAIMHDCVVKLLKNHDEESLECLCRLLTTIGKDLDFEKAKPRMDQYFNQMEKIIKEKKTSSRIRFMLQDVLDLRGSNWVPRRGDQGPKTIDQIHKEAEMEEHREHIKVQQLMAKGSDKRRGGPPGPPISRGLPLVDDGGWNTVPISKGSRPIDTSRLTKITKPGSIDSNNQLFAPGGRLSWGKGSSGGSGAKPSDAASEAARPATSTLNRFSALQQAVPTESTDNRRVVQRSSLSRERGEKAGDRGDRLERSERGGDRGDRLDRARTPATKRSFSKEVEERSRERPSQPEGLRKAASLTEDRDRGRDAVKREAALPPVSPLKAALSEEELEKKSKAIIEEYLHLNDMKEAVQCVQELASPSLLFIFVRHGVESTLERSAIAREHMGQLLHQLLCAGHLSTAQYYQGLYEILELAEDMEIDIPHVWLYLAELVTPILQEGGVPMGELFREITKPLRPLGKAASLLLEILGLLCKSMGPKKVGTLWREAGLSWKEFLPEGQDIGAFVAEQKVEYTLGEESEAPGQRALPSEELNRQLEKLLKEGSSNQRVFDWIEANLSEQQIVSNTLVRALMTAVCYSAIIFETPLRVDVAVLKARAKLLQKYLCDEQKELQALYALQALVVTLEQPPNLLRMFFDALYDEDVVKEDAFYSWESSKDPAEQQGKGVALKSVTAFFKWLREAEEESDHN
# UniProt O43432: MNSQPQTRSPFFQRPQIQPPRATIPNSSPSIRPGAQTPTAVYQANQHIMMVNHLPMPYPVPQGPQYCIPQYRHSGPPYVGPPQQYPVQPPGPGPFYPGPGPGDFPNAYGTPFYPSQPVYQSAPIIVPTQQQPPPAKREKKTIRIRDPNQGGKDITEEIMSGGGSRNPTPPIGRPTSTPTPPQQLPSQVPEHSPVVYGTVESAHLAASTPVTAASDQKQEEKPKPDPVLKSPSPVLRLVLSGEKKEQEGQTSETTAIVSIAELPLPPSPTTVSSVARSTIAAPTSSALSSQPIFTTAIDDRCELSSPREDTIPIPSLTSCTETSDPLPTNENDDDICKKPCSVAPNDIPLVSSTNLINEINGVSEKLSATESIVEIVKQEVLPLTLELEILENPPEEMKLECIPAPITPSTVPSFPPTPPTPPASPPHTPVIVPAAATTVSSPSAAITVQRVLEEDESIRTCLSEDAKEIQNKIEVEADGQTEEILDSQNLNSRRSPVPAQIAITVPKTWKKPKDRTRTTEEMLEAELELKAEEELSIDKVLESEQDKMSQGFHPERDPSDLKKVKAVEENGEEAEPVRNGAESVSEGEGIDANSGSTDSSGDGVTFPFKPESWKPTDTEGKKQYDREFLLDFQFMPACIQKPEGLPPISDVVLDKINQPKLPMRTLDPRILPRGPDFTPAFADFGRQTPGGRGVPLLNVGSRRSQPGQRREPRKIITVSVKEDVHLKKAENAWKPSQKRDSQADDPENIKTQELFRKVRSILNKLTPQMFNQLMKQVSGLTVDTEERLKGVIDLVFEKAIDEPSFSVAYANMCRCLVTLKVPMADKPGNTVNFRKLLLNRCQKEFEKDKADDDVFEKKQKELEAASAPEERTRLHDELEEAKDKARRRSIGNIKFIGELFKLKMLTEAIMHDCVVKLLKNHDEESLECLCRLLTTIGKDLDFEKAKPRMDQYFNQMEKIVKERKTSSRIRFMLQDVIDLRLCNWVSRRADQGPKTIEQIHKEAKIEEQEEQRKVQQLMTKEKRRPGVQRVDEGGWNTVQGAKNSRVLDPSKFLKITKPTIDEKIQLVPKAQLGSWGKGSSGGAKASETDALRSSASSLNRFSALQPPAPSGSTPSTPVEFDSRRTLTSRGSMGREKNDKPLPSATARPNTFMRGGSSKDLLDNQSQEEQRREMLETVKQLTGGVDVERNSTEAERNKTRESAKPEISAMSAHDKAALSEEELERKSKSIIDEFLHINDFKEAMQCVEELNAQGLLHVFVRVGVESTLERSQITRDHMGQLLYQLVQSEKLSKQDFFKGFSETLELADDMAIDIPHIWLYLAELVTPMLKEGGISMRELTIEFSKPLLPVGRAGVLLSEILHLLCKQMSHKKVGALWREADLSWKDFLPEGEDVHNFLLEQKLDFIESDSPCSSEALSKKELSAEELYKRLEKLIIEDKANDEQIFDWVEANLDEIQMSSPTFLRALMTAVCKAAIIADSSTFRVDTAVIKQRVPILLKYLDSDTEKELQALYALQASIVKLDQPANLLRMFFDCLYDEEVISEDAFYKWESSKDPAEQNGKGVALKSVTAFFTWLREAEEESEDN
# Experiments:
# [1] = molecular target: GFP-eIF4AII (eukaryotic translation initiation factor eIF4AII, GFP fused to the N-terminus) (human) (UniProt Q14240); test: affinity purification with mass spectrometry; SILAC-labelled 293T cells transfected with GFP or GFP-eIF4AI/II; lysate (10 mM TrisCl pH 7.5, 150 mM NaCl, 0.5 mM EDTA, 0.5% NP40, RNase cocktail) on anti-GFP agarose, 4 °C, 2 hr; eluates mixed 1:1:1, LC-MS/MS; hits above 1.96 SD of the sample/mock ratios
# [2] = molecular target: GFP-eIF4AI (eukaryotic translation initiation factor eIF4AI, GFP fused to the N-terminus) (human) (UniProt P60842); test: as above
binding [1],binding [2],Substance
binds,,eIF4GI (from UniProt Q04637 1-1599)
binds,binds,eIF4GII (from UniProt O43432 1-1585)
no binding,,hnRNPK (from UniProt P61978 1-463)

# Source: publication PMC4212580
